Results reported in PMC9271913.
Results are given in words; binding and its absence hold for the method and conditions named. In cells and extracts the contact can be indirect. Here binding means that the protein was enriched with, or labelled near, the bait; the list need not be complete.

T1: Retention in endoplasmic reticulum 1 (Rer1), mouse (mouse (endogenous in brain)) (UniProt Q9CQU3)
T1 sequence: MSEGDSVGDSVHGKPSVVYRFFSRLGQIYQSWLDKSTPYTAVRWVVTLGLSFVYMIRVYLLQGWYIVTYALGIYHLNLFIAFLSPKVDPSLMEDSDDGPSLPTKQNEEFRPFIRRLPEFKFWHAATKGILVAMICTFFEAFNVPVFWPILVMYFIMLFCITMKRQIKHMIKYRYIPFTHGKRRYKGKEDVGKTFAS


molecular target: T1, Retention in endoplasmic reticulum 1 (Rer1), mouse (mouse (endogenous in brain)); assay: affinity purification with mass spectrometry; anti-RER1 immunoprecipitation of hippocampus lysates (gentle RIPA lysis buffer) of PTZ-induced Nedd4-2+/- and wild-type mice, LC-MS/MS; IgG-precipitated proteins subtracted; proteins present in all four replicates of a group defined as positive

| Binder | binding |
| --- | --- |
| Rtn4 (protein, UniProt Q99P72 1-1162) MEDIDQSSLVSSSADSPPRPPPAFKYQFVTEPEDEEDEEDEEEEEDDEDLEELEVLERKPAAGLSAAPVPPAAAPLLDFSSDSVPPAPRGPLPAAPPTAPERQPSWERSPAASAPSLPPAAAVLPSKLPEDDEPPARPPAPAGASPLAEPAAPPSTPAAPKRRGSGSVDETLFALPAASEPVIPSSAEKIMDLKEQPGNTVSSGQEDFPSVLFETAASLPSLSPLSTVSFKEHGYLGNLSAVASTEGTIEETLNEASRELPERATNPFVNRESAEFSVLEYSEMGSSFNGSPKGESAMLVENTKEEVIVRSKDKEDLVCSAALHNPQESPATLTKVVKEDGVMSPEKTMDIFNEMKMSVVAPVREEYADFKPFEQAWEVKDTYEGSRDVLAARANMESKVDKKCFEDSLEQKGHGKDSESRNENASFPRTPELVKDGSRAYITCDSFSSATESTAANIFPVLEDHTSENKTDEKKIEERKAQIITEKTSPKTSNPFLVAIHDSEADYVTTDNLSKVTEAVVATMPEGLTPDLVQEACESELNEATGTKIAYETKVDLVQTSEAIQESIYPTAQLCPSFEEAEATPSPVLPDIVMEAPLNSLLPSTGASVAQPSASPLEVPSPVSYDGIKLEPENPPPYEEAMSVALKTSDSKEEIKEPESFNAAAQEAEAPYISIACDLIKETKLSTEPSPEFSNYSEIAKFEKSVPDHCELVDDSSPESEPVDLFSDDSIPEVPQTQEEAVMLMKESLTEVSETVTQHKHKERLSASPQEVGKPYLESFQPNLHITKDAASNEIPTLTKKETISLQMEEFNTAIYSNDDLLSSKEDKMKESETFSDSSPIEIIDEFPTFVSAKDDSPKEYTDLEVSNKSEIANVQSGANSLPCSELPCDLSFKNTYPKDEAHVSDEFSKSRSSVSKVPLLLPNVSALESQIEMGNIVKPKVLTKEAEEKLPSDTEKEDRSLTAVLSAELNKTSVVDLLYWRDIKKTGVVFGASLFLLLSLTVFSIVSVTAYIALALLSVTISFRIYKGVIQAIQKSDEGHPFRAYLESEVAISEELVQKYSNSALGHVNSTIKELRRLFLVDDLVDSLKFAVLMWVFTYVGALFNGLTLLILALISLFSIPVIYERHQAQIDHYLGLANKSVKDAMAKIQAKIPGLKRKAE | binds |
| Canx (protein, UniProt P35564 21-591) HDGHDDDAIDIEDDLDDVIEEVEDSKSKSDASTPPSPKVTYKAPVPTGEVYFADSFDRGSLSGWILSKAKKDDTDDEIAKYDGKWEVDEMKETKLPGDKGLVLMSRAKHHAISAKLNKPFLFDTKPLIVQYEVNFQNGIECGGAYVKLLSKTAELSLDQFHDKTPYTIMFGPDKCGEDYKLHFIFRHKNPKTGVYEEKHAKRPDADLKTYFTDKKTHLYTLILNPDNSFEILVDQSVVNSGNLLNDMTPPVNPSREIEDPEDRKPEDWDERPKIADPDAVKPDDWDEDAPSKIPDEEATKPEGWLDDEPEYIPDPDAEKPEDWDEDMDGEWEAPQIANPKCESAPGCGVWQRPMIDNPNYKGKWKPPMIDNPNYQGIWKPRKIPNPDFFEDLEPFKMTPFSAIGLELWSMTSDIFFDNFIISGDRRVVDDWANDGWGLKKAADGAAEPGVVLQMLEAAEERPWLWVVYILTVALPVFLVILFCCSGKKQSNAMEYKKTDAPQPDVKDEEGKEEEKNKRDEEEEEEKLEEKQKSDAEEDGVTGSQDEEDSKPKAEEDEILNRSPRNRKPRRE | binds |
| Acyl-CoA dehydrogenase family member 9, mitochondrial (protein, UniProt Q8JZN5 42-625) SFAKELFLGNIEQKGVFPFPEVSQHELSEINQFVGPLEKFFTEEVDSRKIDQEGKIPVDTLEKLKSLGLFGIQVPEEYGGLGLSNTMYARLGEIISLDASITVTLAAHQAIGLKGIILVGNEEQKAKYLPKLSSGEHIAAFCLTEPASGSDAASIQTRATLSEDKKYFILNGSKVWITNGGLANIFTVFAKTEVVDSDGSKTDKMTAFIVERDFGGITNGKPEDKLGIRGSNTCEVHFENTRVPVENVLGEVGGGFKVAMNILNSGRFSMGSAVAGMLKKLIELTAEYACTRKQFNRNLSEFGLIQEKFALMAQKAYVMESMAYLTSGMLDQPGFPDCSIEAAMVKVFSSEAAWQCVSEALQILGGSGYMKDYPYERMLRDARILLIFEGTNEILRLFIALTGLQHAGRILTSRIKELKSGNVTTVMETIGRKLRDSLGRTVDLGLTGDLGVVHPSLGDSANKLEENVHYFGRTVETLLLRFGKNIVEEQLVLKRVANILINLYGMTAVLSRASRSIRIGLRNHDHEVLLANMFCVEAYFQNLFSLSQLDKNAPENLDEQIKKVSRQILEKRAYICAHPLDRAS | binds |
